In paper doi:10.1101/2022.03.26.485938 one finds binding data, which are given here for three substances.

By UniProt entry, the sequences of proteins in these tests, tags left out.
UniProt Q9LU77: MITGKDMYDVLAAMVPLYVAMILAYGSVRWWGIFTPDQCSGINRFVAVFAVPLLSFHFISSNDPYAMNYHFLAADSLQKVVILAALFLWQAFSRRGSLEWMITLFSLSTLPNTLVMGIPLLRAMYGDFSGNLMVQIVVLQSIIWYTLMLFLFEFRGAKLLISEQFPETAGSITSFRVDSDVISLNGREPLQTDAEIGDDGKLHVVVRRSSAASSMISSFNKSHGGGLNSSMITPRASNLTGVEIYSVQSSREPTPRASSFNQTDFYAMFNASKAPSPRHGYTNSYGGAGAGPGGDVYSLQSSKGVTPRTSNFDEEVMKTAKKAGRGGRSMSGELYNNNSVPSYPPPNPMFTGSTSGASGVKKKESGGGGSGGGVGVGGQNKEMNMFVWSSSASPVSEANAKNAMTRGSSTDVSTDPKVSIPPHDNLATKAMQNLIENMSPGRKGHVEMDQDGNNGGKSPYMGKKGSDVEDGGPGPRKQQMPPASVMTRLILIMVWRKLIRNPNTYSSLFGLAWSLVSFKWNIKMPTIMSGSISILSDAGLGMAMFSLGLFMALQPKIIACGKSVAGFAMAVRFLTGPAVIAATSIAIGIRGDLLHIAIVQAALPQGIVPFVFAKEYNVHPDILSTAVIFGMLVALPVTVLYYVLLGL
UniProt F4IHJ0: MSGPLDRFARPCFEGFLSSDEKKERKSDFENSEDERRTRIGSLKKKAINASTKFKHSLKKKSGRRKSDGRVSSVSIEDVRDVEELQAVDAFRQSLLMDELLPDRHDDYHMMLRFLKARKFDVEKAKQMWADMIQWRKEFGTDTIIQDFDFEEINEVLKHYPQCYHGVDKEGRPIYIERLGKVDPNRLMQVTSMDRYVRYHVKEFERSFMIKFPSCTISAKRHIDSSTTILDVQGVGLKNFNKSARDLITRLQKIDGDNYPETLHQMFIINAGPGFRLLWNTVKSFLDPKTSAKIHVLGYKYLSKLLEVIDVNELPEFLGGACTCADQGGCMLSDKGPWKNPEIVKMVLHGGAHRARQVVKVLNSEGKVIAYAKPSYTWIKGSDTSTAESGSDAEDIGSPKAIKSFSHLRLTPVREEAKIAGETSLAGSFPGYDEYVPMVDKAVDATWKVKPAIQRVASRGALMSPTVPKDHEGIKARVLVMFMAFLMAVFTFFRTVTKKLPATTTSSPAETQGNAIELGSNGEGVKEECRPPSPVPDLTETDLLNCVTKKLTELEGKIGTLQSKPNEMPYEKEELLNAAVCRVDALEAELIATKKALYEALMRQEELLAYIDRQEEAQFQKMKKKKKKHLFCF

In test [1] the target is PIN2-GFP (Arabidopsis thaliana) (UniProt Q9LU77). Put plainly: proximity ligation.
Test [2] deals with T1, plasma membrane intrinsic protein 2a (PIP2a), GFP-tagged (Arabidopsis thaliana) (UniProt P43286).
T1 sequence: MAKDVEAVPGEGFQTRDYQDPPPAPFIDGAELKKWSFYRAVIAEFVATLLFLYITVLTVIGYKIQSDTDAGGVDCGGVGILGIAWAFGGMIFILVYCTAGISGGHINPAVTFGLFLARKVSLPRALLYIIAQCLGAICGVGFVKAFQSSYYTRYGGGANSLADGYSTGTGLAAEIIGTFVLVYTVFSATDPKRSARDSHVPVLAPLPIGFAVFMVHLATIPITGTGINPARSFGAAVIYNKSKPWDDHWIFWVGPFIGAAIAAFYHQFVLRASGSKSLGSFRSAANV
Put plainly: proximity ligation.

In test [3] the target is GST-SFH8 (Arabidopsis thaliana) (UniProt F4IHJ0). Put plainly: native gel or EMSA.
Test [4] addresses T2, Clathrin Light Chain (CLC2)-GFP (Arabidopsis thaliana) (UniProt O04209).
T2 sequence: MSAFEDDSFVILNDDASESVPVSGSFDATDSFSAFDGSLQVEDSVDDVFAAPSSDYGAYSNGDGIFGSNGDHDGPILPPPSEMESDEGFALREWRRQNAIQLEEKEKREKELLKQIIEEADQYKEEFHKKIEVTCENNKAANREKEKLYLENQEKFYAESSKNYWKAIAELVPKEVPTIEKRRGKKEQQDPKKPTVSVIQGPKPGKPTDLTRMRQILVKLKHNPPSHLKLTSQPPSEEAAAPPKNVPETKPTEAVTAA
Put plainly: pull-down.

No constants are given. Whether binding was seen depends on the method and setting. For some of these results: Binding seen in cells or lysates may run through a third protein. Some results given as binding are weak or reduced against the parent protein; the word gives no strength. For some of these results: Tags and fused reporters may be left off the sequences shown.

On to HF-SFH8 (from UniProt F4IHJ0 1-633), for which, in test [1], the binding entry is recorded as “binds weakly”. For the substance “SFH8, native, detected with α-SFH8 (from UniProt F4IHJ0 1-633)”, the binding entry in test [2] was “no binding”.

Consider GST-SFH8 (from UniProt F4IHJ0 1-633), for which the binding entry is “binds weakly” in test [3] and “no binding” in test [4].
